Results on 3 targets are retold here after the supplement of paper PMC10849652.

Chains of the proteins cited; added tags and fusions are not shown. Lines headed by an entry give the natural chain unless they say otherwise; changes in a name come on top.
UniProt Q8IVL1: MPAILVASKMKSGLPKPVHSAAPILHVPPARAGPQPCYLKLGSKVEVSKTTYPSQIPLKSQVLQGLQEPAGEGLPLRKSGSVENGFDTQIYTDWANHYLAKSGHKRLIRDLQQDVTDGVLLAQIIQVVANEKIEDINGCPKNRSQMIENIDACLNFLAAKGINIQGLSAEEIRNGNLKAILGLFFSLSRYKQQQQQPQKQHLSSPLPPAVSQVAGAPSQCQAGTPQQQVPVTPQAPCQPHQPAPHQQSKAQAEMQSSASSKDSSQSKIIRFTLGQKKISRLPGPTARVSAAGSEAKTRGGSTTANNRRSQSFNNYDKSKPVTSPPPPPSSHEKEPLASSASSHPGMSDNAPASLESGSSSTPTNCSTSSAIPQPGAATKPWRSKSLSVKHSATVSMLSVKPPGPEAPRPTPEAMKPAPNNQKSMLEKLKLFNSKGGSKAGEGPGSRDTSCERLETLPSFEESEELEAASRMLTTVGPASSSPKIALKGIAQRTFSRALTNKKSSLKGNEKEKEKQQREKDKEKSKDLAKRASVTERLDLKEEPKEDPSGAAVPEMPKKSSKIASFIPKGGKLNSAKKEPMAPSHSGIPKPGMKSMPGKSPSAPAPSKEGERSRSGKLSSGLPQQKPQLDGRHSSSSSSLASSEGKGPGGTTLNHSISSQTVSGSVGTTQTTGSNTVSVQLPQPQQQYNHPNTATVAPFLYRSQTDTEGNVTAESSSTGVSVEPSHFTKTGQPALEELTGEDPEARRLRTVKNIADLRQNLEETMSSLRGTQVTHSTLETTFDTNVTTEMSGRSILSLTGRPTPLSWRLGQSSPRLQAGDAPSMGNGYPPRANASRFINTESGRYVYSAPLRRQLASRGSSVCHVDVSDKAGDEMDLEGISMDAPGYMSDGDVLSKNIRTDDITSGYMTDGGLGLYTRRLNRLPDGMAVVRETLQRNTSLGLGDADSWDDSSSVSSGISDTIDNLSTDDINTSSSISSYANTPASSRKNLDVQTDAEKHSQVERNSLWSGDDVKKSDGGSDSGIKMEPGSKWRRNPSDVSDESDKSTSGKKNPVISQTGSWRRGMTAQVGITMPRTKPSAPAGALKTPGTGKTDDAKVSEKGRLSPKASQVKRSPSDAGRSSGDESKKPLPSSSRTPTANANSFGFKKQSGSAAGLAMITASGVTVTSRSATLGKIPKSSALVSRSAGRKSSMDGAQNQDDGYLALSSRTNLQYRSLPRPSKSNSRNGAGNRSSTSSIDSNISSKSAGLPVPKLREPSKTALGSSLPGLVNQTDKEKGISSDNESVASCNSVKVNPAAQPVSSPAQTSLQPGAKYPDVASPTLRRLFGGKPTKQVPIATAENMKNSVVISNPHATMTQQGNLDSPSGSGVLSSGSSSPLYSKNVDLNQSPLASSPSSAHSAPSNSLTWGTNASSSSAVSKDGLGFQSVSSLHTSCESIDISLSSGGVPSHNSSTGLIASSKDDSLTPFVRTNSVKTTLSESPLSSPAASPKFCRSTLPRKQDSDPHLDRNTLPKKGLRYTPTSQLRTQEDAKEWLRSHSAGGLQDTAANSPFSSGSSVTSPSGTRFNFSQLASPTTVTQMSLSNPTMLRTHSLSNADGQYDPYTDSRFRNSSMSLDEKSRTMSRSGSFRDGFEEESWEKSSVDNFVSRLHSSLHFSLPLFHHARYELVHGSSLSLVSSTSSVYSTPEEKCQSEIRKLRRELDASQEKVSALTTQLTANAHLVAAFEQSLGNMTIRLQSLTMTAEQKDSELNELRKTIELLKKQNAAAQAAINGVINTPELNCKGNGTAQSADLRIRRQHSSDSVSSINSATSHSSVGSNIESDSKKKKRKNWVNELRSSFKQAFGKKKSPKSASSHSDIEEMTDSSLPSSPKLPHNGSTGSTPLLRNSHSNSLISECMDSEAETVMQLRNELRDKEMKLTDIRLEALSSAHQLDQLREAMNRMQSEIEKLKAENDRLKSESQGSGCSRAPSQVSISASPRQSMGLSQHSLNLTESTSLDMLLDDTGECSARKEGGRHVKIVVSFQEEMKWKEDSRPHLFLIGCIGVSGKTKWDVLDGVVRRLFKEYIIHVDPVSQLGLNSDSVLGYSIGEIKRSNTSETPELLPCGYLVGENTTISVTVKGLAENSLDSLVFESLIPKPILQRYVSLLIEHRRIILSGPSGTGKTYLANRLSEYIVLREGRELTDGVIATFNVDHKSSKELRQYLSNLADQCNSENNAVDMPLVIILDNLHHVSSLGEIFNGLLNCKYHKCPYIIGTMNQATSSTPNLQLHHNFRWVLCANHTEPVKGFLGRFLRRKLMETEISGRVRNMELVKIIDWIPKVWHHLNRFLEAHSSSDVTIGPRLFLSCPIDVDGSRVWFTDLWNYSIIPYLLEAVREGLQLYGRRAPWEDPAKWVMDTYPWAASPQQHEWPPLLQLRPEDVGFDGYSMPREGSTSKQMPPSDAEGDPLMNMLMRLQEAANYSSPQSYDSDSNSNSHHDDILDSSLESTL
UniProt P10244: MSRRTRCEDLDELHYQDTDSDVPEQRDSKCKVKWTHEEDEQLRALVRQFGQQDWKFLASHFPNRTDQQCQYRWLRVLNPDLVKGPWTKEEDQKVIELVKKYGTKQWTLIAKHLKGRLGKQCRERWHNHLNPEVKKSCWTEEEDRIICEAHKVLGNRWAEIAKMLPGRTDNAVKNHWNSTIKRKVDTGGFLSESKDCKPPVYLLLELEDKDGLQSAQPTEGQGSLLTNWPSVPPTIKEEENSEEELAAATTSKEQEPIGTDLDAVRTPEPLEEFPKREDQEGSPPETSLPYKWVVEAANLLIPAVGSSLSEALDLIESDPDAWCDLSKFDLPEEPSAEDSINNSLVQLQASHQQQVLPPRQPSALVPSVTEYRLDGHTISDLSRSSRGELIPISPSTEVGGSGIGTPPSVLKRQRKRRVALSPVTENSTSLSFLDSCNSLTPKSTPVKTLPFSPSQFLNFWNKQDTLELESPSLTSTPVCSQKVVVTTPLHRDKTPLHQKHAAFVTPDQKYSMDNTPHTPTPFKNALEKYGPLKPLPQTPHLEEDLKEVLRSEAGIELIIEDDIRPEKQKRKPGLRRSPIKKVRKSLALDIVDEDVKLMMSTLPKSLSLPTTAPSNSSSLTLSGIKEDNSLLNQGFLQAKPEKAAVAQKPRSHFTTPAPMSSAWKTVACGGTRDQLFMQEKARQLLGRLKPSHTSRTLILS

Assay in all cases: log2 fold change, soluble protein after heating vs DMSO (PISA); higher = thermal stabilisation; K562 lysate, 10 uM; active = over 0.2 and 3.5 SD of the protein, either way, in both replicates (recomputed)
Compound in one experiment: O=C(CCCCCCC(=O)Nc1ccccc1)NO [vorinostat]
Put shortly: (§1)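 Pellets of K562 cells were dounce-homogenised in PBS pH 7.4 with 1 mM MgCl2, and the crude extract was held at 1 mg/mL protein for a 30 min treatment with 10 μM compound. Aliquots were heated for 3 min over 48°C-58°C and pooled before NP-40 was added to 0.5% at 4°C. The supernatant from 21,000xg for 90 min was quantified by TMTpro 16plex LC-MS/MS with channel sums equalised. Values are reported from duplicates as log-two fold change in thermal stability relative to solvent controls.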

Compound in the next experiment: O=C(O)c1ccc2c(c1)nc(Nc1cccc(Cl)c1)c1ccncc12 [silmitasertib]
Put shortly: as §1

Compound in the next experiment: c1cn2cc(-c3ccc4cn[nH]c4c3)nc(Nc3ccc(N4CCOCC4)cc3)c2n1 [entospletinib]
Put shortly: as §1

Compound in experiment [1]: NCC(=O)Nc1ccc(-n2nc(C(F)(F)F)cc2-c2ccc3c(ccc4ccccc43)c2)cc1
Put shortly: as §1

Compound in experiment [2]: O=C1NC(=O)C(c2cnc3ccccn23)=C1c1cn2c3c(cc(F)cc13)CN(C(=O)N1CCCCC1)CC2
Put shortly:
as §1

The other results are listed elsewhere or left out.

NAP1L4 (UniProt C9JZI7): the log2 fold change with vorinostat was inactive: -0.071; with silmitasertib, inactive: 0.051.
In the case of NAV2 (UniProt Q8IVL1), in the experiment with entospletinib, the log2 fold change was inactive: -0.007.
On to MYBL2 (UniProt P10244), for which the log2 fold change in experiment [1] is inactive: -0.03; with vorinostat, active: -0.333; with silmitasertib it was inactive: 0.003; in experiment [2], inactive: 0.008; with entospletinib, inactive: 0.025.
